Measured values from paper PMC6255761.
Positions count from the first letter of the chain named. These are yes or no findings as the source states them, for the method shown. In cells and extracts the contact can be indirect. Some binding calls cover weakened binding; strength is not graded here. Where a sequence is shown, tags or fusion partners need not be part of it. Values belong to the molecule of their own block, whether it stands above or below them.

Chains of the proteins cited; added tags and fusions are not shown.
UniProt Q6IAA8: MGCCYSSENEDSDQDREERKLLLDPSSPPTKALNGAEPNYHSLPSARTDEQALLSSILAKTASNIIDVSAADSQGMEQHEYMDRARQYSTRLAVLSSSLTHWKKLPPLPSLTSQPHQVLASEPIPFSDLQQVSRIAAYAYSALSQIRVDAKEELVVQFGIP
UniProt Q9Y2Q5: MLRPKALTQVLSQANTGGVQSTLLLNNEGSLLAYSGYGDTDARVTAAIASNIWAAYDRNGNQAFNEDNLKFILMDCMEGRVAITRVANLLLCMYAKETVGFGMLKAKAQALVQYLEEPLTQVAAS
UniProt Q9UHA4: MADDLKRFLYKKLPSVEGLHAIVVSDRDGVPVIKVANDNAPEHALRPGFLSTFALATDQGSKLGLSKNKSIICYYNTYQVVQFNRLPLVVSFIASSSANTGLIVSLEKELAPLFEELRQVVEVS

Legend:
GST-Arl5b-QL = target: T1, GST-Arl5b-QL (UniProt Q96KC2); assay: pull-down; bead-immobilized GST-Arl5b-TN or -QL incubated with HEK293T lysates expressing individual GFP- or Myc-tagged Lamtor constructs; blots against the tags; only the target purified
T1 sequence: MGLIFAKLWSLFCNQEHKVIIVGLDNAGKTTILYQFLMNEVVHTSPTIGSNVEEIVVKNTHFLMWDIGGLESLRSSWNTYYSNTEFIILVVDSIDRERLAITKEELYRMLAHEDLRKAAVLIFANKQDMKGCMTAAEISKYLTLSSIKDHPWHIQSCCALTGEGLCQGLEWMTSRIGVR

Lamtor1-Myc = Lamtor1-Myc (UniProt Q6IAA8); assay: co-IP; forward and reverse co-IPs from HEK293T lysates co-expressing C-terminally GFP-tagged and Myc-tagged proteins; blots against the tags

binding (GST-Arl5b-QL): no binding
Molecule: Myc-tagged Lamtor2 (from UniProt Q9Y2Q5 1-125)

binding (GST-Arl5b-QL): no binding
Molecule: Myc-tagged Lamtor3 (from UniProt Q9UHA4 1-124)

binding (Lamtor1-Myc): binds
B1: Arl5b-QL-GFP (protein, UniProt Q96KC2 1-179)
chain: T1 sequence

binding (Lamtor1-Myc): binds
B2: Arl5b-TN-GFP (protein, UniProt Q96KC2 1-179)
chain: T1 sequence with T30N, L70Q
